# Assay results reported in PubChem BioAssay AID504444 (National Center for Advancing Translational Sciences (NCATS), 2011).
# Hit rate of the full screen: of about 360,000 compounds, about 7,500 (2.1%) were called active. The shares of active, inactive and inconclusive entries below differ from those in the screen. The call rests on the fitted dose curve; in most records, active means well fitted inhibition curve with a large enough effect; inconclusive means small, poorly fitted or top-dose-only effect, or effect the other way; inactive means flat fitted curve, though single readings scatter. Potencies of inconclusive entries are doubtful fits and often do not repeat.
# Assay: Nrf2 qHTS screen for inhibitors; further: nearly all actives have a fitted effect of over 60% in size
# Conditions: A549 ARE-Fluc reporter, luciferase luminescence, 18-24 h; activity change, negative = inhibition: at 46 µM (top of the series)
# How it was run: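 Two sequential reads on A549 ARE_Fluc cells exposed to compound for 18-24 h: a CellTiter-Fluor fluorescence read for viability, then a luciferase luminescence read for Nrf2/ARE activity.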
# On the % scale 0 is the no-effect control and ±100 the full control effect; potency means the concentration at half of the fitted maximal effect.
Compound,Potency,"activity change, negative = inhibition"
Cc1ccc(Cc2nnc(SCC(=O)Nc3ccccc3)[nH]c2=O)cc1,"inconclusive: 29.1 µM [falling, single point]",–
Fc1ccc([C@@H]2CCNC[C@H]2COc2ccc3c(c2)OCO3)cc1,inactive,–
CCOc1ccc(-c2nc(N)ncc2-c2ccc(OC)cc2)c(O)c1,"inconclusive: 18.4 µM [falling, single point]",–
O=C(/C=C/c1ccc(F)cc1)c1ccccc1Br,"inconclusive: 23.1 µM [falling, single point]",–
CN(C)C(=O)c1ccc(COc2ccccc2Br)o1,"inconclusive: 4.11 µM [activator, partial curve]",–
CCN=c1scc(C)n1/N=C/c1ccsc1,"inconclusive: 9.2 µM [activator, partial curve]",–
CCCCOC(=O)c1ccc(Nc2ncnc3nc[nH]c23)cc1,–,inactive: 0.538%
COCc1cc(C)nc(SCC(=O)Nc2ccc3c(c2)OCO3)c1C#N,"inconclusive: 25.9 µM [falling, partial curve, poor fit]",–
CCOC(=O)c1c(C)[nH]c(C(=O)CSc2nc(C)cc(C)n2)c1C,"inconclusive: 20.6 µM [falling, partial curve, poor fit]",–
Cc1ccc(NC(=O)c2oc3ccccc3c2NC(=O)C2CC2)cc1,"inconclusive: 0.731 µM [falling, full curve, poor fit]",–
Cc1cccc(C)c1OCC(=O)Nc1ccc(S(=O)(=O)Nc2ccccn2)cc1,"inconclusive: 10.3 µM [falling, partial curve, poor fit]",–
O=C(CN1CCc2ccccc21)NCc1ccc2c(c1)OCO2,"inconclusive: 23.1 µM [activator, single point]",–
Cc1cc(C)n2nc(C(=O)NC3CCCc4ccccc43)nc2n1 (stereo not given),"inconclusive: 0.206 µM [falling, partial curve, poor fit]",–
CCOc1ccc(OCC)c(NC(=O)C2COc3ccccc3O2)c1 (stereo not given),"inconclusive: 32.6 µM [falling, single point]",–
Cc1ccc(S(=O)(=O)Nc2c(C(=O)O)[nH]c3ccccc23)c(C)c1,–,inactive: 7.24%
COc1ccc(/C(C)=N/NC(=O)c2cccc(S(=O)(=O)N3CCCC3)c2)c(O)c1,"inconclusive: 14.6 µM [falling, partial curve]",–
CC(C)Oc1ccccc1NC(=O)CSc1nc2ccccc2c(=O)n1C,"inconclusive: 16.4 µM [falling, single point]",–
COc1ccccc1N1CCN(C(=O)c2cccc3c(=O)c(C)c(-c4ccccc4)oc23)CC1,–,inactive: -10.2%
COc1cc2c(cc1OC)C1(NCC2)C(=O)Nc2ccccc21 (stereo not given),–,inactive: -14.6%
COc1ccc(CNC(=O)C2CCCC2)cc1,"inconclusive: 29.1 µM [activator, single point]",–
CC1CCCCN1C(=O)c1cc2nc(-c3ccccc3)cc(-c3ccccc3)n2n1 (stereo not given),"inconclusive: 29.1 µM [falling, single point]",–
CC1=C(c2ccc(C)c(C)c2)S(=O)(=O)N=C1N1CCC(C(=O)N2CCC(C)CC2)CC1,"inconclusive: 20.6 µM [activator, single point]",–

# Of the compounds above, these contain an NH in an aromatic ring.
Compound,Potency,"activity change, negative = inhibition"
Cc1ccc(Cc2nnc(SCC(=O)Nc3ccccc3)[nH]c2=O)cc1,"inconclusive: 29.1 µM [falling, single point]",–
CCCCOC(=O)c1ccc(Nc2ncnc3nc[nH]c23)cc1,–,inactive: 0.538%
CCOC(=O)c1c(C)[nH]c(C(=O)CSc2nc(C)cc(C)n2)c1C,"inconclusive: 20.6 µM [falling, partial curve, poor fit]",–
Cc1ccc(S(=O)(=O)Nc2c(C(=O)O)[nH]c3ccccc23)c(C)c1,–,inactive: 7.24%

# Carrying on.

Compound,Potency,"activity change, negative = inhibition"
CC(=O)Nc1ccc(Nc2cc(N3CCOCC3)c3nonc3c2[N+](=O)[O-])cc1,"inconclusive: 20.6 µM [falling, single point]",–
Cc1ccccc1OCc1ccc(-c2nc(C#N)c(NCc3cccnc3)o2)o1,active: 11.6 µM,–
CCOC(=O)C1=C(c2ccccc2)NC(SC)=C(C#N)C1c1ccco1 (stereo not given),"inconclusive: 18.4 µM [falling, single point]",–
Cc1ccc(NC(=O)c2ccoc2C)cc1C,"inconclusive: 2.59 µM [activator, full curve]",–
O=C1COc2ccc(S(=O)(=O)CCC(=O)N3CCN(c4cccc(C(F)(F)F)c4)CC3)cc2N1,"inconclusive: 32.6 µM [falling, single point]",–
COc1ccc(C=NNC(=O)c2ccccc2OCc2ccc(F)cc2)c(OC)c1,"inconclusive: 20.6 µM [activator, single point]",–
CCOc1ccccc1CNC(=O)c1cc2oc3ccccc3c2n1C,"inconclusive: 6.51 µM [activator, single point]",–
N#CCc1ccc(NC(=O)c2ccc(CN3CCc4ccccc4C3)cc2)cc1,active: 5.17 µM,–
O=C(CCc1ccccc1)NNC(=S)NC(=O)c1ccccc1,"inconclusive: 18.4 µM [falling, single point]",–
O=C(CSc1nnc(-c2ccccc2Br)o1)N1CCc2ccccc2C1,"inconclusive: 29.1 µM [falling, single point]",–
Cc1cc(NC(=O)CSc2nnc(C)n2C)no1,"inconclusive: 8.2 µM [falling, partial curve, poor fit]",–
COC(=O)[C@]1(CC(C)C)N[C@H](c2ccc(-c3cccc(Cl)c3)cc2)[C@@H]2C(=O)N(C)C(=O)[C@@H]21,"inconclusive: 25.9 µM [falling, partial curve]",–
COc1ccc([C@H]2CC(=O)C=C(/C=C/Cc3ccccc3)C2)cc1,"inconclusive: 29.1 µM [falling, single point]",–
COc1ccc(Nc2oc(-c3ccco3)nc2S(=O)(=O)c2ccc(F)cc2)cc1,"inconclusive: 18.4 µM [activator, single point]",–
CCN1CCN(c2ncnc3c2cnn3-c2ccc(Cl)cc2)CC1,"inconclusive: 18.4 µM [activator, partial curve]",–
CCOc1cc(/C=N/Nc2nc3ccccc3[nH]2)cc(Br)c1OCC(=O)N(C)C,active: 18.4 µM,–
CCC(NC(=O)OC(C)(C)C)C(=O)Oc1ccc2c3c(c(=O)oc2c1)CCC3 (stereo not given),"inconclusive: 3.66 µM [falling, full curve]",–
CC(C)Cc1ccc(C(C)C(=O)OCC(=O)c2c[nH]c3ccccc23)cc1 (stereo not given),"inconclusive: 29.1 µM [falling, single point]",–
Cc1ccc2c(c1)C1CN(C)CCC1N2Sc1ccccc1[N+](=O)[O-] (stereo not given),"inconclusive: 11.6 µM [activator, partial curve, poor fit]",–
CCc1ccc2occ(CC(=O)Nc3ccccc3C(F)(F)F)c2c1,"inconclusive: 3.66 µM [falling, full curve, poor fit]",–
CC(C)c1ccc(Nc2cc(C(=O)NC3CCCCC3)c3ccccc3n2)cc1,–,inactive: 0.0313%
CCCCC(CC)C(=O)Nc1ccccc1C(=O)NC(C)C (stereo not given),"inconclusive: 29.1 µM [falling, single point]",–

Compound,Potency,"activity change, negative = inhibition"
COc1cccc(NC(=O)c2cc(-c3ccc(C)o3)nc3ccccc23)c1,–,inactive: -11.5%
O=C(NCCn1ccc2ccccc21)c1ccc(Cl)cc1,"inconclusive: 5.8 µM [activator, partial curve]",–
COc1ccccc1NC(=O)CSc1nc(-c2ccc(C(C)(C)C)cc2)c(C#N)c(=O)[nH]1,–,inactive: -1%
CCOc1ccccc1-n1nnc(-c2nsc(NC(=O)c3ccc(C)cc3)n2)c1C,"inconclusive: 2.06 µM [falling, full curve, poor fit]",–
CCCN(CC1CC1)C(=O)CSc1nnc(-c2cc(-c3cccs3)nc3ccccc23)o1,"inconclusive: 18.4 µM [falling, single point]",–
CC1=CN2C(=N)/C(=C\c3cn(CCCOc4ccccc4)c4ccccc34)C(=O)N=C2S1,"inconclusive: 29.1 µM [falling, single point]",–
N#Cc1cc2sc3nnc(-c4ccncc4)n3c2cc1C#N,active: 6.51 µM,–
CCOc1ccc(C(=O)Nc2cccc3ncccc23)cc1Cl,"inconclusive: 25.9 µM [falling, single point]",–
Cc1cccc(NC(=O)N2CCC3(CC2)Oc2ccccc2C(=O)N3Cc2ccccc2F)c1C,"inconclusive: 18.4 µM [activator, single point]",–
COc1cccc(C(=O)Nc2c(C(=O)N3CCN(c4ccc(F)cc4)CC3)oc3ccccc23)c1,"inconclusive: 4.61 µM [falling, partial curve, poor fit]",–
COC(=O)c1cc(COc2ccc3oc(C)c(C(=O)OC)c3c2)c(C)o1,"inconclusive: 16.4 µM [falling, single point]",–
CCOC(=O)Cc1nnc2c(Nc3ccc(Cl)cc3)nc3nonc3n12,"inconclusive: 16.4 µM [falling, partial curve]",–
CC1=C(C(=O)OCCNC(=O)c2ccccc2O)C(c2ccccc2[N+](=O)[O-])C(C(=O)OCC2CCCO2)=C(C)N1 (stereo not given),"inconclusive: 29.1 µM [falling, single point]",–
CCOC(=O)Cc1csc(N/C(=N/S(=O)(=O)c2ccc(Cl)cc2)c2ccccc2)n1,"inconclusive: 32.6 µM [falling, single point]",–
O=C(NC1CCCC1)c1sc(=S)n2c1[nH]c(=O)c1ccccc12,active: 16.4 µM,–
NC(CO)C(=O)NNCc1ccc(O)c(O)c1O (stereo not given),"inconclusive: 23.1 µM [falling, partial curve, poor fit]",–
CCOC(=O)CSc1nc2c([nH]c3ccccc32)c(=O)n1C,"inconclusive: 6.51 µM [activator, single point]",–
COc1ccc(C2SCC(=O)N2CCc2ccc(OC)c(OC)c2)cc1 (stereo not given),active: 23.1 µM,–
COc1ccc(NC(=O)C2CCCN(S(=O)(=O)c3ccc(Br)s3)C2)cc1 (stereo not given),"inconclusive: 29.1 µM [falling, single point]",–
CCCc1cc(C(=O)N/N=C/c2ccc(CC)s2)c2ccccc2n1,"inconclusive: 14.6 µM [falling, partial curve]",–
CCCc1nc(NCCO)c(C#N)c2c1CCCC2,"inconclusive: 14.6 µM [falling, partial curve]",–
